Each structure is given as a SMILES string. The list shows a part of the results. The main result of the screen is listed elsewhere. These columns were measured beside it and carry no call. The list favours compounds with an active or inconclusive main result. Words in brackets tell the shape of the fitted curve; partial curves, single points and poor fits give uncertain potencies.

This assay is described as follows: IkB Signaling. The conditions noted are these: ABC-DLBCL IkBa-CBG/CBR dual luciferase ratio (green luciferase fused to IkBa over red control in OCI-Ly3 lymphoma cells), 4 h; measured here: control luc red channel unless noted. The gist of the method: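 Curves were fitted separately to fusion (green), unfused (red) and ratio luminescence, then classed by r2, magnitude and activity. Cells: OCI-Ly3, 4 h compound plus doxycycline at 37C; 10 uM MG-132 defined full response.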
As a reminder, the AC50 is the midpoint of the concentration-response curve, whichever way the signal moves. In the case of `COc1ccc2c(CC(=O)NCc3ccc4c(c3)OCO4)coc2c1`, the AC50 is 6.31 µM [falling, partial curve].

For `CCc1ccc(NC(=O)Nc2ccccc2OCc2cc(=O)n3ccccc3n2)cc1`, the AC50 was 5.01 µM [falling, partial curve].

For `COc1ccc(-c2nnn3c2nc(NCc2ccc(C)cc2)c2ccccc23)cc1`, the concentration at half-maximal activity (AC50) is 0.794 µM [falling, single point].

Turning to `O=C(c1cc(-c2ccc(F)cc2)on1)N1CCCC1`, the half-maximal activity concentration (AC50) is 2.51 µM [falling, full curve].

On to `CCCCNc1ccc(-c2nc(-c3ccccn3)no2)cc1[N+](=O)[O-]`, for which the AC50 was 0.00794 µM [rising, full curve, poor fit].

Turning to `O=C(COC(=O)C1(c2ccccc2)CC1)N1CCN(c2ccc(F)cc2)CC1`, the AC50 is 20 µM [falling, single point].

As to `N=c1n(CCN2CCOCC2)c2ccccc2n1CC(=O)c1ccc(Cl)c(Cl)c1`, the AC50 is 1 µM [falling, full curve].

`CCOc1ccccc1N(C(=O)c1snc(C(N)=O)c1N)C(C(=O)NCCC(C)C)c1ccco1` (stereo not drawn): the AC50 was 7.94 µM [falling, full curve].

`CCCc1ccc(S(=O)(=O)N2CCC(c3nnc(-c4cccc(C)c4)o3)CC2)cc1`: the AC50 was 39.8 µM [falling, single point].

With `CCn1c(=O)c2cc(C(=O)NCCCN3CCN(c4ccc(F)cc4)CC3)sc2c2ccccc21`, the AC50 is 3.98 µM [falling, partial curve].

As for `CC(C)Oc1ccc(CNC(=O)c2ccc3c(c2)nc2n3CCCCC2)cc1`, the AC50 is 10 µM [falling, partial curve].

In the case of `COc1ccc(C)cc1NC(=O)c1c2c(nc3ccccc13)C(=O)N(C1CCCCC1)C2`, the AC50 was 15.8 µM [falling, partial curve].

In the case of `CCOc1ccc(Br)cc1C1C(C(=O)OC)=C(C)NC2=C1C(=O)c1ccccc12` (stereo not drawn), the AC50 was 25.1 µM [falling, single point].

`Cc1ccc(Cl)cc1NC(=O)C(Cc1ccccc1)NS(=O)(=O)c1cccc2nsnc12` (stereo not drawn): the AC50 is 3.98 µM [falling, full curve].

Consider `CCc1c(C)sc2c1CCN(C(=O)Nc1ccccc1C(=O)OC)C2c1ccc(OC)cc1` (stereo not drawn), for which the AC50 was 39.8 µM [falling, single point].

For `COc1ccc(OC)c(C2Nc3c(C)cc(C)cc3-c3cc(C)nn32)c1` (stereo not drawn), the AC50 is 25.1 µM [falling, partial curve].

Regarding `Cc1ccc(NS(=O)(=O)c2ccc3c(c2)CC(=O)N3)cc1Cl`, the AC50 is 31.6 µM [falling, single point].

Consider `O=C(NCCC1=CCCCC1)c1ccc(Cl)c(S(=O)(=O)N2CCOCC2)c1`, for which the AC50 is 12.6 µM [falling, partial curve].

(Values after PubChem BioAssay AID445 (National Center for Advancing Translational Sciences (NCATS), 2006).)
